Measured data: PubChem BioAssay AID504774 (Drosophila RNAi Screening Center, 2011)

- Test: 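Knock-downs that shift viability of MMS-exposed cells relative to untreated ones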 (primary screen)
- Cells: Drosophila Kc167 cells
- Knock-down reagent: long dsRNA against Drosophila genes, about 0.25 µg dsRNA per well
- Timing: about 6 days: 3 days knock-down, then 3 days with or without MMS
- Treatment: methyl methanesulphonate 0.004% (w/v) for 3 days after knock-down
- Detection: 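ATP-dependent luminescence as a measure of live cells in MMS-exposed wells, quantile normalised within each plate, with replicate values also given as a mean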
- Scale: mean viability with MMS: higher = more surviving cells after MMS
The screen tested about 23,000 reagents; shown is a random part of those with a known target gene and a result. 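Values are quantile-normalised luminescence on an arbitrary scale; higher means more cells surviving MMS.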 Further read-outs or replicates are left out here. Reagent sequences are not shown.

target | dsRNA | mean viability with MMS
grk | DRSC03540 | 3.44e6
Nup188 | DRSC21830 | 3.19e6
M1BP | DRSC16566 | 2.97e6
Rala | DRSC18703 | 3.66e6
CG13096 | DRSC02198 | 3.42e6
CG13895 | DRSC08365 | 3.46e6
Fen1 | DRSC07415 | 3.47e6
Phb2 | DRSC06512 | 1.72e6
CG11816 | DRSC19428 | 3.19e6
CG15258 | DRSC02478 | 3.57e6
CG6933 | DRSC10751 | 3.58e6
Ssb-c31a | DRSC03443 | 3.60e6
Dora | DRSC19614 | 3.50e6
Dora | DRSC19781 | 3.78e6
Dora | DRSC20034 | 3.51e6
Dora | DRSC20035 | 3.25e6
rk | DRSC03602 | 3.50e6
Klp61F | DRSC08671 | 3.36e6
ms(2)35Ci | DRSC01460 | 3.72e6
Gprk1 | DRSC20732 | 2.46e6
Gprk1 | DRSC20916 | 2.26e6
nompA | DRSC06329 | 3.66e6
Kr-h2 | DRSC03356 | 3.55e6
Takl2 | DRSC15650 | 3.82e6
Ir94a | DRSC13538 | 3.46e6
CG42449 | DRSC18084 | 3.67e6
Mgat1 | DRSC07463 | 3.41e6
Jheh1 | DRSC06529 | 3.47e6

Not a retest: 4 of the entries above.
target | dsRNA | mean viability with MMS
Phb2 | DRSC06512 | 1.72e6
CG11816 | DRSC19428 | 3.19e6
CG15258 | DRSC02478 | 3.57e6
CG6933 | DRSC10751 | 3.58e6
